Results: patent publication US5049546A, “Antibiotic agents” (Merck & Co., Inc., priority 1990, dated 1991)
Not every detail of the peptide structures is certain; ends, links or a residue may be inferred. Numbered stars: 1 amine (or outer) side, 2 acyl side, 3 side chain; on linkers, the order of the positions; unused ones are H or OH. Bridge positions count the residues as written; N and C are the ends. Square brackets hold non-standard residues; d marks the D form. Peptide text beside a SMILES is read from it. * marks the point of attachment. ξ: configuration not given here. ξhTyr(βξ-OH,γξ-OH) = NC(C(=O)O)C(O)C(O)c1ccc(O)cc1; X2 = NC(=O)CC(O)C(N[*:1])C(=O)[*:2]; X1 = CCC(C)CC(C)CCCCCCCCC(=O)*; X3 = O=C(C1C(O)CCN1[*:1])[*:2]; Hyp = O=C(O)[CH]1C[CH](O)CN1; Orn = NCCC[CH](N)C(=O)O

Key:
[1] = system: Candida albicans; assay: Minimum fungicidal concentration (MFC), microbroth dilution assay in YNBD; format: cell-based; conditions: then Sabouraud dextrose agar 24 hours 28° C.
[2] = system: Candida parapsilosis; assay: as above; format: cell-based; conditions: then Sabouraud dextrose agar 24 hours 28° C.
[3] = system: Candida tropicalis; assay: as above; format: cell-based; conditions: Candida tropicalis MY 1012, 35° C. 24 hours, then Sabouraud dextrose agar 24 hours 28° C.
[4] = system: Pneumocystis carinii; assay: Pneumocystis carinii pneumonia in immunosuppressed rats; format: in vivo; conditions: dexasone-immunosuppressed Sprague-Dawley rats; intraperitoneal, twice daily for five days; microscopic analysis of stained lung slides

## CCC(C)CC(C)CCCCCCCCC(=O)NC1CCCNC(=O)C2C(O)CCN2C(=O)C(C(O)CC(N)=O)NC(=O)C(C(O)C(O)c2ccc(O)cc2)NC(=O)C2CC(O)CN2C(=O)C(C(C)O)NC1=O (stereo not drawn) [Compound I] (X1-[Orn]T[Hyp][ξhTyr(βξ-OH,γξ-OH)][X2][X3]; lactam 1-C; configuration not given here)
[1]; Candida albicans MY 1028, 35° C. 24 hours
  Minimum Fungicidal Concentration: 16 µg/mL
[1]; Candida albicans MY 1055, 35° C. 24 hours
  Minimum Fungicidal Concentration: 32 µg/mL
[1]; Candida albicans MY 1208, 35° C. 24 hours
  Minimum Fungicidal Concentration: 32 µg/mL
[1]; Candida albicans MY 1585, 35° C. 24 hours
  Minimum Fungicidal Concentration: 32 µg/mL
[1]; Candida albicans MY 1750, 35° C. 24 hours
  Minimum Fungicidal Concentration: 16 µg/mL
[1]; Candida albicans MY 1783, 35° C. 24 hours
  Minimum Fungicidal Concentration: 16 µg/mL
[2]; Candida parapsilosis MY 1009, 35° C. 24 hours
  Minimum Fungicidal Concentration: 128 µg/mL
[2]; Candida parapsilosis MY 1010, 35° C. 24 hours
  Minimum Fungicidal Concentration: 64 µg/mL
[3]
  Minimum Fungicidal Concentration: 32 µg/mL
[4]
  ED90 (antipneumocystis activity): ≤ 1.0 mg/kg
